Test results from the supplement of paper PMC10849652.
The other results are listed elsewhere or left out.

Protein sequences, listed by entry. Tags and fused reporters are not part of them. Lines headed by an entry give the natural chain unless they say otherwise; changes in a name come on top.
UniProt Q9H3U5: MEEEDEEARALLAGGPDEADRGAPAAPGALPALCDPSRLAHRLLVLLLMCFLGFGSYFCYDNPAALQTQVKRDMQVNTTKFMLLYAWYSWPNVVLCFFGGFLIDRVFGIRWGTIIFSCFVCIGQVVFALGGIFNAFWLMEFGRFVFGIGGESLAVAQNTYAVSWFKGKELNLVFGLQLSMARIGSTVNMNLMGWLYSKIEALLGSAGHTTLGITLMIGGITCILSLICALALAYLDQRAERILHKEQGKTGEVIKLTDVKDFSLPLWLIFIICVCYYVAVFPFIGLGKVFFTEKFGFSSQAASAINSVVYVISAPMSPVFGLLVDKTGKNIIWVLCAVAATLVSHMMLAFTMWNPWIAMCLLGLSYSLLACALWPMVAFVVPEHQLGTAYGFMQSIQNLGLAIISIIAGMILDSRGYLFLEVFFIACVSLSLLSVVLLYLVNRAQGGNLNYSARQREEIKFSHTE
UniProt Q96G25: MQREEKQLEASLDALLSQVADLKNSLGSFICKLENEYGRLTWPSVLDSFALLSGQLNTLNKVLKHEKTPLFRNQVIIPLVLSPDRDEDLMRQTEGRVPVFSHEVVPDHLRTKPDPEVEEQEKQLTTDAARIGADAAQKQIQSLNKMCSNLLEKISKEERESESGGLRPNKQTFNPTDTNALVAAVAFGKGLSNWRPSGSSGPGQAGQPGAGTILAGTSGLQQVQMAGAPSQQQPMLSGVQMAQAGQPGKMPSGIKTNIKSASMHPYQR
UniProt Q8TDD5: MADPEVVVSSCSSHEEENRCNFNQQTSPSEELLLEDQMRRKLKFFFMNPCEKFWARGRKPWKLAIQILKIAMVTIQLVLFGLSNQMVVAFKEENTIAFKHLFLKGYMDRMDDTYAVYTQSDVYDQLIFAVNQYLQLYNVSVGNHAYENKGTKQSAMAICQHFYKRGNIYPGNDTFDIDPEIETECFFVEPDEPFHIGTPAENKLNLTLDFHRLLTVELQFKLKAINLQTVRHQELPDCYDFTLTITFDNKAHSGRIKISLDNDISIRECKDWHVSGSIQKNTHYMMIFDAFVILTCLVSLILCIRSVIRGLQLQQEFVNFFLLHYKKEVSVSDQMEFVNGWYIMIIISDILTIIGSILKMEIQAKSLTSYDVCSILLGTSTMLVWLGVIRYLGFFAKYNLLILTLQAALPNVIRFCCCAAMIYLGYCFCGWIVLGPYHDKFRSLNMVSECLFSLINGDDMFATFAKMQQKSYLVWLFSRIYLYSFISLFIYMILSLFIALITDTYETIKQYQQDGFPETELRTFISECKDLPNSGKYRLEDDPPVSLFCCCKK
UniProt Q9H1U4: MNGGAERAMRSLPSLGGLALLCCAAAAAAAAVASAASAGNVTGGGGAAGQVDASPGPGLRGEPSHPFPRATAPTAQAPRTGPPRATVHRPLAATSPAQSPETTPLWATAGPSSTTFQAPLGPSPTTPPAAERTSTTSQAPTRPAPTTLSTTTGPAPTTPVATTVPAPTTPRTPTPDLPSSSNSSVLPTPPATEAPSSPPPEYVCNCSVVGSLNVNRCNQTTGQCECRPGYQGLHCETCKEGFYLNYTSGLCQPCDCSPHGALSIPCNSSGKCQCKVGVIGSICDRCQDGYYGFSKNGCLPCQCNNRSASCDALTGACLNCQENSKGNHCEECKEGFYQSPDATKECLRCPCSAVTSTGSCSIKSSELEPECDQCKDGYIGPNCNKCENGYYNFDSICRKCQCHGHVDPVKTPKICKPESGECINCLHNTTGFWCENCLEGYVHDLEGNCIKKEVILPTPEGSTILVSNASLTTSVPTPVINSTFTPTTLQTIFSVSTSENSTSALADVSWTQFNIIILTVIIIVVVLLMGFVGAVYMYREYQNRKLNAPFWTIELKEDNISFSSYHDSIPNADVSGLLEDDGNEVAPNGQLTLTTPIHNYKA
UniProt Q9NWR8: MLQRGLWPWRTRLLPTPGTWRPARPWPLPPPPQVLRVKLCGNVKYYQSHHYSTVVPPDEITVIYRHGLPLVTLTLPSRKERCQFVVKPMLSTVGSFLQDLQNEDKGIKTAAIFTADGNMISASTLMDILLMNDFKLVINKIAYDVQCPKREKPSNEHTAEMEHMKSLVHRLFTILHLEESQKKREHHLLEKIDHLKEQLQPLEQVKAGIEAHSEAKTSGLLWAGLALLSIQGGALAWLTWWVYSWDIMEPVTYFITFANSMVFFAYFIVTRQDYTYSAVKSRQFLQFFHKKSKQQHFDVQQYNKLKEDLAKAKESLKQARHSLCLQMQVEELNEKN
UniProt A4D2B0: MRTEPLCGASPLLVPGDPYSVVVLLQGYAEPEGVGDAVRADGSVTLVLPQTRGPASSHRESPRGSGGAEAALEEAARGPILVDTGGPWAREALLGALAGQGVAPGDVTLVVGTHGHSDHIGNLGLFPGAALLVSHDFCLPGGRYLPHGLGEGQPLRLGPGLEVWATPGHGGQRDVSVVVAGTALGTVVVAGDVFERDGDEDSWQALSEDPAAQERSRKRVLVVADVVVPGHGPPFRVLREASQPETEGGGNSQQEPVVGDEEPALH
UniProt Q9UBB5, whole entry, looked up: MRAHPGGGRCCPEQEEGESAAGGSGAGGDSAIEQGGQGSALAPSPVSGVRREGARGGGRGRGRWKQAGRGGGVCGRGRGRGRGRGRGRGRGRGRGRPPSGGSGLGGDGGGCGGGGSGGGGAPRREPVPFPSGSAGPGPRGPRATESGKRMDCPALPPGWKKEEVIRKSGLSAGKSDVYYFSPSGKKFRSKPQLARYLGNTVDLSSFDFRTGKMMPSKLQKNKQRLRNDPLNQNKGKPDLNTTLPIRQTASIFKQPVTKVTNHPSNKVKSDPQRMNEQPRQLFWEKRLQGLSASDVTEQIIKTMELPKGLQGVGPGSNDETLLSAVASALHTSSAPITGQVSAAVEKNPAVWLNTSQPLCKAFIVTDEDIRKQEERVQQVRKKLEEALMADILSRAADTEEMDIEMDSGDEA
UniProt Q14703: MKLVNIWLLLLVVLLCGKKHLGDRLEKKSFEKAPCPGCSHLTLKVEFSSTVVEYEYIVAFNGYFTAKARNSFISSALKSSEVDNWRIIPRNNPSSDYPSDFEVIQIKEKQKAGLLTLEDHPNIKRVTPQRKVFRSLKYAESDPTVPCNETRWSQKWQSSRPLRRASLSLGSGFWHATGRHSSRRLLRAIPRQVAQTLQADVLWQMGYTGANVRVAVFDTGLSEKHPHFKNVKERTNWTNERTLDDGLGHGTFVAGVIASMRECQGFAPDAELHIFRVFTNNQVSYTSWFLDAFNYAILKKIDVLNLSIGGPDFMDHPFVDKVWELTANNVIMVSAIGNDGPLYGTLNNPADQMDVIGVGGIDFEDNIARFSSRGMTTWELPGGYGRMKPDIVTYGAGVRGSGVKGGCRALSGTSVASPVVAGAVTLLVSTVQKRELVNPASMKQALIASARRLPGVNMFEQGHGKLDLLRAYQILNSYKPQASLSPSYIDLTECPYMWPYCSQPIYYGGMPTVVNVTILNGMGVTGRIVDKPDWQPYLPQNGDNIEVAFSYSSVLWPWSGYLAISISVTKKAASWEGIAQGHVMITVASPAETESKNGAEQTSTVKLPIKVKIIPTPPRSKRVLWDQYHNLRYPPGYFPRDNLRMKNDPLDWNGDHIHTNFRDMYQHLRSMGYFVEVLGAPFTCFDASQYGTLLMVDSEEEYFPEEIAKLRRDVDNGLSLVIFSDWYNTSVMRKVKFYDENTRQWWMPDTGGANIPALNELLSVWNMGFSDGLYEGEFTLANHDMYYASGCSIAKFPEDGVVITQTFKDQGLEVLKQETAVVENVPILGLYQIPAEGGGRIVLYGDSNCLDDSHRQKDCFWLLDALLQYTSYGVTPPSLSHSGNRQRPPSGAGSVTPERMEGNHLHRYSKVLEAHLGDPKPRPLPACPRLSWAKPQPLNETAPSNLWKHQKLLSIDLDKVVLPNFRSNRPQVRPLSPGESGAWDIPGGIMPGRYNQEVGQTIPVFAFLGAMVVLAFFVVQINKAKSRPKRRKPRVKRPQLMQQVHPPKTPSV
UniProt P40926: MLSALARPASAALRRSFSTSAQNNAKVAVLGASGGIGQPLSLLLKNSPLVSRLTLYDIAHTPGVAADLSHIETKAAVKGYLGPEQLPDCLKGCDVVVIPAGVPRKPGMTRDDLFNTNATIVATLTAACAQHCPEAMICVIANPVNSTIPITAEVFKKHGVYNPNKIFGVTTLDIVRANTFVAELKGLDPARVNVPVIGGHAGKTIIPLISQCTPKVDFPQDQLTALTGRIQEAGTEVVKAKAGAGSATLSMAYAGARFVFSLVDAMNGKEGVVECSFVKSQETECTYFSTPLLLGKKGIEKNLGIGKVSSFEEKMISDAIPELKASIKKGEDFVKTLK
UniProt Q9GZU1, whole entry, looked up: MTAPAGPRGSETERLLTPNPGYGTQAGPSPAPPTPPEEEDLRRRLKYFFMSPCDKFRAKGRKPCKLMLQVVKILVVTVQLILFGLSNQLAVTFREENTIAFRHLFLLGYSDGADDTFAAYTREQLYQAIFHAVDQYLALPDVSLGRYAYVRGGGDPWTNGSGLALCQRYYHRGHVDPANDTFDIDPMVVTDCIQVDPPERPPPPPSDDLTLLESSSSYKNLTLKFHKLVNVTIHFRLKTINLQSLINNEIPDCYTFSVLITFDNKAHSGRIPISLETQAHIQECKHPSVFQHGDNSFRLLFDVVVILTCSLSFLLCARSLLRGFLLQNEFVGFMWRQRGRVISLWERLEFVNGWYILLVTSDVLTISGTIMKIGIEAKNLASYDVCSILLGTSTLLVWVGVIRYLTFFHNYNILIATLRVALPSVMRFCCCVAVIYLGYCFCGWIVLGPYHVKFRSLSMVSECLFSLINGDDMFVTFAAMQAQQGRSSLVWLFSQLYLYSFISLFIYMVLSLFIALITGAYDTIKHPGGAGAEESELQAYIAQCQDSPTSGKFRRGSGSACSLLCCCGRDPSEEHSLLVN
UniProt O75586: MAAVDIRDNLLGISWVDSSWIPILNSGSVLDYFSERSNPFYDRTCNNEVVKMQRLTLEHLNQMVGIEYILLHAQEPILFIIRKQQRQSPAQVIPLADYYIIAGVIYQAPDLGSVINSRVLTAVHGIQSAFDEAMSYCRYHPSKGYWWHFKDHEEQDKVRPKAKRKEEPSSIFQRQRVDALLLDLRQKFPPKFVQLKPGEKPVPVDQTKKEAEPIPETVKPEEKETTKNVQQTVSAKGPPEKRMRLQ
UniProt Q96HR3: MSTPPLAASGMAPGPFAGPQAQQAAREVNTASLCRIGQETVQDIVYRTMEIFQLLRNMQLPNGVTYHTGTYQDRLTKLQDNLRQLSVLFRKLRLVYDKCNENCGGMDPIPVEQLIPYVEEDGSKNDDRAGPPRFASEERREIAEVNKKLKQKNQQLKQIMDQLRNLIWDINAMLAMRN
UniProt Q8NBP5: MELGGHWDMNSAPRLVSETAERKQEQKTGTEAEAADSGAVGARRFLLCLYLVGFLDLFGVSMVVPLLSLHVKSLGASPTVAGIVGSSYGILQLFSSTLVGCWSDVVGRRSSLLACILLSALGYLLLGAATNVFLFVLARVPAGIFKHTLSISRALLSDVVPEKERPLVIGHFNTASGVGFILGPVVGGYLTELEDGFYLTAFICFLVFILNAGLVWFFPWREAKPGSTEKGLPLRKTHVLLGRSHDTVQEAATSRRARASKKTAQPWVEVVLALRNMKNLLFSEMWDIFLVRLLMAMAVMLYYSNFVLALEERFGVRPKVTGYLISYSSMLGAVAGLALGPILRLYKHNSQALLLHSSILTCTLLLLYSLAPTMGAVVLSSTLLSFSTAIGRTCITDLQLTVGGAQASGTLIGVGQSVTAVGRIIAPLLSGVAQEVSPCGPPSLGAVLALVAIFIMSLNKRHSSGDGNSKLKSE
UniProt Q5U5Q3: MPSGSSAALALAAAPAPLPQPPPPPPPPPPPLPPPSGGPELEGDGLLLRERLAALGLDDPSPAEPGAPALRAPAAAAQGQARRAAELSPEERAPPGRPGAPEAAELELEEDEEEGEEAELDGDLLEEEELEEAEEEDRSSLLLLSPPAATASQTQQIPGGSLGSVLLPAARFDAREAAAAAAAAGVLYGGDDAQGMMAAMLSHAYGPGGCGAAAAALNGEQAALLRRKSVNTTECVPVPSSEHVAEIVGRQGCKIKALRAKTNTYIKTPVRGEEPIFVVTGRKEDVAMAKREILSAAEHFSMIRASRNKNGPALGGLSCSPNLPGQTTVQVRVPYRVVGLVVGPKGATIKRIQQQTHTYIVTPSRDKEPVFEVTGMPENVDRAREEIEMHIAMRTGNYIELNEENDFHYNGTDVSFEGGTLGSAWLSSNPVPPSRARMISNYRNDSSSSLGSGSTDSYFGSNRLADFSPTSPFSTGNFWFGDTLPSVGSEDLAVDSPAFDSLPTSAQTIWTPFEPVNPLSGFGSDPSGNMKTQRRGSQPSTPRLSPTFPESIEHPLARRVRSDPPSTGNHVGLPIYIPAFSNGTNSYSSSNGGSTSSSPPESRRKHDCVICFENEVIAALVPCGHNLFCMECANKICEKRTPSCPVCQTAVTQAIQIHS

Legend:
Assay in all cases: log2 fold change, soluble protein after heating vs DMSO (PISA); higher = thermal stabilisation; K562 cells, 10 uM, 30 min; active = over 0.2 and 3.5 SD of the protein, either way, in both replicates (recomputed)
bafetinib = compound: Cc1ccc(NC(=O)c2ccc(CN3CC[C@H](N(C)C)C3)c(C(F)(F)F)c2)cc1Nc1nccc(-c2cncnc2)n1 [bafetinib]
How it was run: (§1)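 Quantification of soluble protein used TMTpro 16plex LC-MS/MS, with channel sums equalised. Samples were the supernatant after 21,000xg for 90 min of pooled aliquots from K562 cells (2×10^6 cells/mL) treated with 10 μM compound for 30 min, heated for 3 min over 48°C-58°C, and extracted in PBS with 0.5% NP-40 at 4°C. Values, from duplicates, describe thermal stability against control samples on a log2 fold-change scale.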

[1] = compound: Cc1cccc(CC(=O)N2CCc3c2ccc(-c2cn(C)c4ncnc(N)c24)c3F)n1
How it was run: as §1

nilotinib = compound: Cc1cn(-c2cc(NC(=O)c3ccc(C)c(Nc4nccc(-c5cccnc5)n4)c3)cc(C(F)(F)F)c2)cn1 [nilotinib]
How it was run: as §1

[2] = compound: Cc1nc(Nc2n[nH]c3c2CN(C(=O)N[C@H](CN(C)C)c2ccccc2)C3(C)C)c2sccc2n1
How it was run: as §1

[3] = compound: Cc1ncc(-c2ccnc(Nc3ccc(S(C)(=O)=O)cc3)n2)n1C(C)C
How it was run: as §1

[4] = compound: Cn1cc(-c2ccc3c(c2)CCN3C(=O)Cc2cccc(C(F)(F)F)c2)c2c(N)ncnc21
How it was run: as §1

[5] = compound: Cn1cc(-c2ccc3nnc(C(F)(F)c4ccc5ncccc5c4)n3n2)cn1
How it was run: as §1

tipifarnib = compound: Cn1cncc1[C@@](N)(c1ccc(Cl)cc1)c1ccc2c(c1)c(-c1cccc(Cl)c1)cc(=O)n2C [tipifarnib]
How it was run: as §1

mubritinib = compound: FC(F)(F)c1ccc(/C=C/c2nc(COc3ccc(CCCCn4ccnn4)cc3)co2)cc1 [mubritinib]
How it was run: as §1

[6] = compound: NC(=O)Nc1cc(-c2cccc(F)c2)sc1C(=O)N[C@H]1CCCNC1
How it was run: as §1

[7] = compound: NC(=O)c1cnc(N[C@@H]2CCCC[C@@H]2N)nc1Nc1cccc(-n2nccn2)c1
How it was run: as §1

[8] = compound: NC1(c2ccc(-c3nc4ccn5c(=O)[nH]nc5c4cc3-c3ccccc3)cc2)CCC1
How it was run: as §1

[9] = compound: NCC(=O)Nc1ccc(-n2nc(C(F)(F)F)cc2-c2ccc3c(ccc4ccccc43)c2)cc1
How it was run: as §1

entinostat = compound: Nc1ccccc1NC(=O)c1ccc(CNC(=O)OCc2cccnc2)cc1 [entinostat]
How it was run: as §1

vorinostat = compound: O=C(CCCCCCC(=O)Nc1ccccc1)NO [vorinostat]
How it was run: as §1

citarinostat = compound: O=C(CCCCCCNC(=O)c1cnc(N(c2ccccc2)c2ccccc2Cl)nc1)NO [citarinostat]
How it was run: as §1

silmitasertib = compound: O=C(O)c1ccc2c(c1)nc(Nc1cccc(Cl)c1)c1ccncc12 [silmitasertib]
How it was run: as §1

[10] = compound: O=C1NC(=O)C(c2cnc3ccccn23)=C1c1cn2c3c(cc(F)cc13)CN(C(=O)N1CCCCC1)CC2
How it was run: as §1

[11] = compound: c1cc(OCCN2CCCCC2)cc(-c2n[nH]c3ccc(-c4nnc[nH]4)cc23)c1
How it was run: as §1

dasatinib = compound: Cc1nc(Nc2ncc(C(=O)Nc3c(C)cccc3Cl)s2)cc(N2CCN(CCO)CC2)n1 [dasatinib]
How it was run: as §1

Measured: log2 fold change

MFSD1 isoform 6 (UniProt Q9H3U5)
inactive: bafetinib -0.123 | [1] 0.066 | nilotinib -0.017 | [2] 0.046 | [3] -0.016 | [4] -0.034 | [5] 0.033 | tipifarnib 0.05 | mubritinib 0.005 | [6] 0.02 | [7] -0.066 | [9] -0.098 | entinostat -0.019 | vorinostat -0.053 | citarinostat 0.03 | silmitasertib -0.008 | [10] 0.067 | [11] 0.043
active: [8] -0.308

MED8 isoform 2 (UniProt Q96G25)
inactive: bafetinib -0.026 | nilotinib 0.016 | [2] -0.015 | dasatinib 0.034 | [3] -0.171 | [4] -0.086 | [5] 0.013 | tipifarnib 0.012 | mubritinib -0.059 | [6] 0.048 | [7] 0.2 | [8] 0.038 | [9] 0.303 | entinostat -0.107 | citarinostat 0.035 | silmitasertib 0.079 | [10] -0.043 | [11] -0.092

MCM10 (UniProt Q7L590)
inactive: bafetinib 0.182 | [1] -0.044 | nilotinib 0.046 | [2] -0.001 | [3] -0.008 | tipifarnib -0.155 | mubritinib 0.09 | [8] 0.002 | [9] -0.085 | entinostat 0.224 | vorinostat 0.021 | citarinostat 0.143 | silmitasertib -0.129 | [10] 0.134 | [11] 0.107
active: [6] 0.522

MCOLN3 (UniProt Q8TDD5)
inactive: bafetinib -0.03 | [1] -0.183 | nilotinib -0.289 | [2] -0.113 | [3] 0.041 | [5] 0.079 | tipifarnib 0.072 | mubritinib 0.05 | [8] -0.254 | vorinostat 0 | citarinostat 0.095 | silmitasertib 0.083 | [11] 0.159

MEGF9 (UniProt Q9H1U4)
inactive: bafetinib -0.136 | [1] -0.101 | [4] -0.345 | [6] -0.054 | entinostat -0.065 | vorinostat -0.109

MCUB (UniProt Q9NWR8)
inactive: bafetinib -0.075 | [1] 0.062 | nilotinib -0.156 | [2] 0.206 | dasatinib -0.134 | [3] 0.056 | [4] 0.005 | [5] -0.019 | tipifarnib 0 | mubritinib -0.027 | [6] -0.057 | [7] -0.078 | [8] 0.1 | [9] -0.02 | entinostat 0.052 | vorinostat 0.152 | citarinostat -0.047 | silmitasertib -0.092 | [10] -0.155 | [11] 0.003

MBLAC1 (UniProt A4D2B0)
inactive: bafetinib -0.017 | [1] 0.065 | dasatinib -0.129 | [4] 0.086 | [5] -0.125 | tipifarnib 0.094 | mubritinib -0.045 | [7] -0.031 | [8] -0.179 | [9] 0.242 | vorinostat -0.021 | citarinostat 0.01 | silmitasertib -0.082 | [11] -0.067

MBD2 (UniProt Q9UBB5)
inactive: bafetinib 0.017 | [1] -0.022 | nilotinib -0.007 | [2] 0.056 | dasatinib 0.022 | [3] -0.095 | [4] -0.008 | [5] -0.089 | tipifarnib -0.009 | mubritinib -0.022 | [6] -0.048 | [7] 0.058 | [8] -0.117 | [9] 0.062 | entinostat -0.055 | vorinostat -0.068 | silmitasertib 0.081 | [10] 0.058

MATR3 (UniProt P43243)
inactive: bafetinib -0.086 | [1] -0.101 | nilotinib 0.077 | [2] -0.244 | dasatinib 0.071 | [3] -0.285 | [5] 0.136 | mubritinib -0.075 | [6] 0.155 | [7] 0.13 | [8] -0.171 | [9] -0.269 | entinostat 0.011 | vorinostat 0.021 | citarinostat -0.082 | silmitasertib 0.203 | [10] 0.127 | [11] -0.048

MED12 isoform 2 (UniProt Q93074)
inactive: bafetinib -0.112 | [1] 0.044 | nilotinib -0.038 | [2] 0.068 | dasatinib -0.24 | [3] -0.058 | [5] 0.003 | tipifarnib -0.071 | mubritinib -0.103 | [6] 0.022 | [7] -0.455 | [8] -0.191 | entinostat 0.066 | vorinostat 0.22 | citarinostat 0.181 | silmitasertib 0.016 | [10] -0.005 | [11] -0.311

MBTPS1 (UniProt Q14703)
inactive: bafetinib 0.11 | [1] -0.008 | nilotinib 0.053 | [2] 0.02 | dasatinib 0.024 | [3] -0.004 | [4] -0.03 | [5] 0.019 | tipifarnib 0.104 | mubritinib 0.095 | [6] -0.003 | [7] -0.045 | [8] -0.072 | [9] -0.038 | entinostat -0.082 | vorinostat 0.029 | citarinostat 0.165 | silmitasertib 0.018 | [10] 0.107 | [11] -0.058

MDH2 (UniProt P40926)
inactive: bafetinib -0.005 | [1] -0.053 | nilotinib -0.018 | [2] 0.017 | dasatinib 0.03 | [3] -0.025 | [4] 0.01 | [5] 0.02 | tipifarnib 0.015 | mubritinib -0.02 | [6] 0.011 | [7] 0.018 | [8] 0.052 | [9] 0.024 | entinostat -0.025 | vorinostat -0.067 | citarinostat 0.014 | silmitasertib -0.015 | [10] -0.008 | [11] 0.037

MCOLN1 (UniProt Q9GZU1)
inactive: bafetinib -0.197 | [1] 0.04 | nilotinib 0.03 | [2] 0.145 | dasatinib 0.205 | [3] -0.067 | [5] 0.31 | tipifarnib 0.018 | mubritinib 0.011 | [6] 0.122 | [8] -0.066 | entinostat -0.015 | vorinostat -0.104 | citarinostat -0.054 | silmitasertib 0.14 | [10] 0.273 | [11] 0.006

MCL1 (UniProt Q07820)
inactive: bafetinib -0.181 | [1] -0.017 | nilotinib 0.015 | [2] -0.053 | dasatinib 0.068 | [3] -0.079 | [4] -0.021 | [5] -0.158 | tipifarnib 0.109 | mubritinib 0.001 | [6] -0.074 | [7] -0.33 | [8] -0.093 | [9] -0.039 | entinostat 0.072 | vorinostat 0.011 | citarinostat -0.079 | silmitasertib 0.034 | [10] -0.112 | [11] 0.142

MED6 (UniProt O75586)
inactive: bafetinib 0.129 | [1] 0.123 | nilotinib -0.185 | [2] 0.138 | [3] 0.108 | [4] -0.024 | mubritinib -0.08 | [6] -0.092 | [8] -0.186 | [9] 0.208 | entinostat -0.012 | vorinostat 0.129 | citarinostat -0.001 | silmitasertib 0.156 | [10] 0.128 | [11] 0.137

MED30 (UniProt Q96HR3)
inactive: bafetinib -0.043 | nilotinib -0.002 | [2] -0.037 | dasatinib 0.076 | [3] -0.095 | [4] -0.058 | [5] -0.035 | tipifarnib 0.001 | mubritinib 0.072 | [6] -0.131 | [7] 0.021 | [8] 0.039 | [9] -0.032 | entinostat -0.065 | citarinostat -0.049 | silmitasertib 0.007 | [10] -0.048 | [11] -0.073

MCUR1 (UniProt Q96AQ8)
inactive: bafetinib 0 | [1] 0 | nilotinib 0.015 | [2] 0.015 | dasatinib -0.037 | [3] -0.004 | [4] 0.031 | [5] -0.091 | tipifarnib -0.028 | mubritinib 0.044 | [6] -0.043 | [7] -0.048 | [8] 0.011 | [9] 0.01 | entinostat -0.028 | vorinostat -0.026 | citarinostat -0.001 | silmitasertib -0.023 | [10] -0.036 | [11] -0.018

MFSD9 (UniProt Q8NBP5)
inactive: nilotinib -0.215 | [2] -0.009 | dasatinib 0.012 | [3] 0.032 | [4] 0.054 | tipifarnib -0.037 | mubritinib -0.099 | [8] 0.04 | silmitasertib -0.028

MEX3C (UniProt Q5U5Q3)
inactive: [5] -0.067 | mubritinib 0.278 | [8] 0.013 | silmitasertib 0.113

MEF2A isoform 2 (UniProt Q02078)
inactive: [1] 0.155 | nilotinib -0.056 | [2] 0.032 | [3] -0.152 | [4] 0.038 | tipifarnib 0.08 | mubritinib 0.114 | [8] 0 | [9] 0.003 | vorinostat 0.084 | silmitasertib -0.067
